# Data taken from the supplement of paper PMC8728848.
# The list shows a part of the results.
# B1: PX14404-bvu-534-26-534 (Bacteroides vulgatus) (protein)
# chain: EDPRGKLTPENFFSTQDELNMSIYALYQKVNLSQVYTNMQLPQWQGDDITTNPGSNKQPAAEMDKFAAANNNKGVKDAWNMHYAIVKAANLIIQGASKTPTTQDEINIALGQAKFWRAYAYFTLVRLWGPLPMNLDNVNDDYTKPLSPVEEVYGHIVQDLTEAEAVLPTGYSGSPRFLNGVNVYVTRQAAKSTLAAVYMAMAGWPMNKTEYYAKAAEKAKEVIEGVNRGEYEYKLDKDYKDVYAMSNNYNNETVLGINYSPFVDWAQDSELTSCNQFESLGGWGDAWGEIRFWKEFPDGPRKDATYDPKIRLKDGTLVDWWELKEDGTPVVPEHHPMFSIFSVNWDPASKVNTSAPYDYTKPASQNMCNDHRHRIIRYSEVLLWYAEAKARTGQTDELAFKCLNDVRERAGLEPLTGLSADDLAEAAYKEHGWEVAGYWVALVTRRADQFRMNRLKDTFKERAENTAVEVADGILVKESVEYTNRTWSDNLMYLPYPDMDSQKNPNLVR
# Key:
# Assay in all cases: glycan array binding signal (z-score within array); higher = stronger binding
# Details in all cases: glycan notation: IUPAC condensed, linker removed
# [1] = molecular target: Neu5Ac(a2-6)Gal(b1-3)GlcNAc(b1-3)[Gal(b1-4)GlcNAc(b1-6)]Gal(b1-4)Glc
# Method in brief: (§1)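 Glycan array binding is given as a within-array Z-score, which can be read as non-binding when negative. The arrays, 3228 of them, came from the Consortium for Functional Glycomics database and were retained only where the protein sequence was available. Z-scores were averaged across arrays of the same protein sequence at different concentrations or buffers and across linkers.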
# Neu5Ac(a2-6)Gal(b1-4)Glc = molecular target: Neu5Ac(a2-6)Gal(b1-4)Glc
# Method in brief: as §1
# [2] = molecular target: Neu5Ac(a2-6)Gal(b1-4)GlcNAc
# Method in brief: as §1
# [3] = molecular target: Neu5Ac(a2-6)Gal(b1-4)GlcNAc(b1-2)Man
# Method in brief: as §1
# [4] = molecular target: Neu5Ac(a2-6)Gal(b1-4)GlcNAc(b1-2)Man(a1-3)Man(b1-4)GlcNAc(b1-4)GlcNAc
# Method in brief: as §1
# [5] = molecular target: Neu5Ac(a2-6)Gal(b1-4)GlcNAc(b1-2)Man(a1-3)[Gal(b1-4)GlcNAc(b1-2)Man(a1-6)]Man(b1-4)GlcNAc(b1-4)GlcNAc
# Method in brief: as §1
# [6] = molecular target: Neu5Ac(a2-6)Gal(b1-4)GlcNAc(b1-2)Man(a1-3)[GlcNAc(b1-2)Man(a1-6)]Man(b1-4)GlcNAc(b1-4)GlcNAc
# Method in brief: as §1
# [7] = molecular target: Neu5Ac(a2-6)Gal(b1-4)GlcNAc(b1-2)Man(a1-3)[GlcNAc(b1-4)][Neu5Ac(a2-6)Gal(b1-4)GlcNAc(b1-2)Man(a1-6)]Man(b1-4)GlcNAc(b1-4)GlcNAc
# Method in brief: as §1
# [8] = molecular target: Neu5Ac(a2-6)Gal(b1-4)GlcNAc(b1-2)Man(a1-3)[Man(a1-6)]Man(b1-4)GlcNAc(b1-4)GlcNAc
# Method in brief: as §1
# [9] = molecular target: Neu5Ac(a2-6)Gal(b1-4)GlcNAc(b1-2)Man(a1-3)[Neu5Ac(a2-3)Gal(b1-4)GlcNAc(b1-2)Man(a1-6)]Man(b1-4)GlcNAc(b1-4)GlcNAc
# Method in brief: as §1
# [10] = molecular target: Neu5Ac(a2-6)Gal(b1-4)GlcNAc(b1-2)Man(a1-3)[Neu5Ac(a2-6)Gal(b1-4)GlcNAc(b1-2)Man(a1-6)]Man(b1-4)GlcNAc(b1-4)GlcNAc
# Method in brief: as §1
# [11] = molecular target: Neu5Ac(a2-6)Gal(b1-4)GlcNAc(b1-2)Man(a1-3)[Neu5Ac(a2-6)Gal(b1-4)GlcNAc(b1-2)Man(a1-6)]Man(b1-4)GlcNAc(b1-4)[Fuc(a1-6)]GlcNAc
# Method in brief: as §1
# [12] = molecular target: Neu5Ac(a2-6)Gal(b1-4)GlcNAc(b1-2)Man(a1-6)Man(b1-4)GlcNAc(b1-4)GlcNAc
# Method in brief: as §1
# [13] = molecular target: Neu5Ac(a2-6)Gal(b1-4)GlcNAc(b1-2)Man(a1-6)[Gal(b1-4)GlcNAc(b1-2)Man(a1-3)]Man(b1-4)GlcNAc(b1-4)GlcNAc
# Method in brief: as §1
# [14] = molecular target: Neu5Ac(a2-6)Gal(b1-4)GlcNAc(b1-2)Man(a1-6)[GlcNAc(b1-2)Man(a1-3)]Man(b1-4)GlcNAc(b1-4)GlcNAc
# Method in brief: as §1
# [15] = molecular target: Neu5Ac(a2-6)Gal(b1-4)GlcNAc(b1-2)Man(a1-6)[Man(a1-3)]Man(b1-4)GlcNAc(b1-4)GlcNAc
# Method in brief: as §1
# [16] = molecular target: Neu5Ac(a2-6)Gal(b1-4)GlcNAc(b1-2)[Neu5Ac(a2-6)Gal(b1-4)GlcNAc(b1-4)]Man(a1-3)[GlcNAc(b1-4)][Neu5Ac(a2-6)Gal(b1-4)GlcNAc(b1-2)[Neu5Ac(a2-6)Gal(b1-4)GlcNAc(b1-6)]Man(a1-6)]Man(b1-4)GlcNAc(b1-4)GlcNAc
# Method in brief: as §1
# [17] = molecular target: Neu5Ac(a2-6)Gal(b1-4)GlcNAc(b1-2)[Neu5Ac(a2-6)Gal(b1-4)GlcNAc(b1-4)]Man(a1-3)[GlcNAc(b1-4)][Neu5Ac(a2-6)Gal(b1-4)GlcNAc(b1-4)Man(a1-6)]Man(b1-4)GlcNAc(b1-4)GlcNAc
# Method in brief: as §1
# [18] = molecular target: Neu5Ac(a2-6)Gal(b1-4)GlcNAc(b1-2)[Neu5Ac(a2-6)Gal(b1-4)GlcNAc(b1-6)]Man(a1-6)[Neu5Ac(a2-6)Gal(b1-4)GlcNAc(b1-2)Man(a1-3)][GlcNAc(b1-4)]Man(b1-4)GlcNAc(b1-4)GlcNAc
# Method in brief: as §1
# [19] = molecular target: Neu5Ac(a2-6)Gal(b1-4)GlcNAc(b1-3)Gal(b1-3)GlcNAc
# Method in brief: as §1
# [20] = molecular target: Neu5Ac(a2-6)Gal(b1-4)GlcNAc(b1-3)Gal(b1-4)GlcNAc
# Method in brief: as §1
# [21] = molecular target: Neu5Ac(a2-6)Gal(b1-4)GlcNAc(b1-3)Gal(b1-4)GlcNAc(b1-2)Man(a1-3)[Neu5Ac(a2-6)Gal(b1-4)GlcNAc(b1-3)Gal(b1-4)GlcNAc(b1-2)Man(a1-6)]GalNAc
# Method in brief: as §1
# [22] = molecular target: Neu5Ac(a2-6)Gal(b1-4)GlcNAc(b1-3)Gal(b1-4)GlcNAc(b1-3)Gal(b1-4)GlcNAc
# Method in brief: as §1
# [23] = molecular target: Neu5Ac(a2-6)Gal(b1-4)GlcNAc(b1-3)Gal(b1-4)GlcNAc(b1-3)Gal(b1-4)GlcNAc(b1-2)Man(a1-3)[Neu5Ac(a2-6)Gal(b1-4)GlcNAc(b1-3)Gal(b1-4)GlcNAc(b1-3)Gal(b1-4)GlcNAc(b1-2)Man(a1-6)]GalNAc
# Method in brief: as §1
# [24] = molecular target: Neu5Ac(a2-6)Gal(b1-4)GlcNAc(b1-3)Gal(b1-4)GlcNAc(b1-3)GalNAc
# Method in brief: as §1
# [25] = molecular target: Neu5Ac(a2-6)Gal(b1-4)GlcNAc(b1-3)Gal(b1-4)GlcNAc(b1-3)[Neu5Ac(a2-6)Gal(b1-4)GlcNAc(b1-3)Gal(b1-4)GlcNAc(b1-6)]GalNAc
# Method in brief: as §1
# [26] = molecular target: Neu5Ac(a2-6)Gal(b1-4)GlcNAc(b1-3)Gal(b1-4)GlcNAc(b1-6)[Gal(b1-3)]GalNAc
# Method in brief: as §1
# [27] = molecular target: Neu5Ac(a2-6)Gal(b1-4)GlcNAc(b1-3)Gal(b1-4)[Fuc(a1-3)]GlcNAc(b1-3)Gal(b1-4)[Fuc(a1-3)]GlcNAc
# Method in brief: as §1
# [28] = molecular target: Neu5Ac(a2-6)Gal(b1-4)GlcNAc(b1-3)GalNAc
# Method in brief: as §1
# [29] = molecular target: Neu5Ac(a2-6)Gal(b1-4)GlcNAc(b1-3)[Neu5Ac(a2-6)Gal(b1-4)GlcNAc(b1-6)]GalNAc
# Method in brief: as §1
# [30] = molecular target: Neu5Ac(a2-6)Gal(b1-4)GlcNAc(b1-6)GalNAc
# Method in brief: as §1
# [31] = molecular target: Neu5Ac(a2-6)Gal(b1-4)GlcNAc(b1-6)[Gal(b1-3)GlcNAc(b1-3)]Gal(b1-4)Glc
# Method in brief: as §1
# [32] = molecular target: Neu5Ac(a2-6)Gal(b1-4)GlcNAc(b1-6)[Gal(b1-3)]GalNAc
# Method in brief: as §1
# [33] = molecular target: Neu5Ac(a2-6)Gal(b1-4)GlcNAc6S
# Method in brief: as §1
# Neu5Ac(a2-6)GalNAc = molecular target: Neu5Ac(a2-6)GalNAc
# Method in brief: as §1
# [34] = molecular target: Neu5Ac(a2-6)GalNAc(b1-4)GlcNAc
# Method in brief: as §1
# [35] = molecular target: Neu5Ac(a2-6)GalNAc(b1-4)GlcNAc6S
# Method in brief: as §1
# [36] = molecular target: Neu5Ac(a2-6)GlcNAc(b1-4)GlcNAc
# Method in brief: as §1
binder,measurement,setting,value
B1,glycan array binding signal (z-score),[1],-0.444
same,glycan array binding signal (z-score),Neu5Ac(a2-6)Gal(b1-4)Glc,0.839
same,glycan array binding signal (z-score),[2],0.634
same,glycan array binding signal (z-score),[3],-0.24
same,glycan array binding signal (z-score),[4],-0.116
same,glycan array binding signal (z-score),[5],-0.017
same,glycan array binding signal (z-score),[6],-0.39
same,glycan array binding signal (z-score),[7],-0.239
same,glycan array binding signal (z-score),[8],0.469
same,glycan array binding signal (z-score),[9],-0.968
same,glycan array binding signal (z-score),[10],-0.576
same,glycan array binding signal (z-score),[11],0.449
same,glycan array binding signal (z-score),[12],-0.251
same,glycan array binding signal (z-score),[13],-1.11
same,glycan array binding signal (z-score),[14],-0.5
same,glycan array binding signal (z-score),[15],0.106
same,glycan array binding signal (z-score),[16],-0.206
same,glycan array binding signal (z-score),[17],-0.334
same,glycan array binding signal (z-score),[18],-0.278
same,glycan array binding signal (z-score),[19],-0.105
same,glycan array binding signal (z-score),[20],-0.138
same,glycan array binding signal (z-score),[21],0.347
same,glycan array binding signal (z-score),[22],-0.378
same,glycan array binding signal (z-score),[23],0.693
same,glycan array binding signal (z-score),[24],0.883
same,glycan array binding signal (z-score),[25],0.075
same,glycan array binding signal (z-score),[26],0.411
same,glycan array binding signal (z-score),[27],0.65
same,glycan array binding signal (z-score),[28],0.156
same,glycan array binding signal (z-score),[29],-0.736
same,glycan array binding signal (z-score),[30],0.144
same,glycan array binding signal (z-score),[31],-1.1
same,glycan array binding signal (z-score),[32],-0.496
same,glycan array binding signal (z-score),[33],0.022
same,glycan array binding signal (z-score),Neu5Ac(a2-6)GalNAc,0.186
same,glycan array binding signal (z-score),[34],0.298
same,glycan array binding signal (z-score),[35],1.39
same,glycan array binding signal (z-score),[36],-0.51

# Another view of part of the listing above:
binder	measurement	setting	value
B1	glycan array binding signal (z-score)	[10]	-0.576
same	glycan array binding signal (z-score)	[11]	0.449
